Test results reported in PubChem BioAssay AID1347075 (National Center for Advancing Translational Sciences (NCATS), 2019).
In all, about 400,000 compounds went through this assay and about 5,500 (1.4%) were called active. This list was built around the results that the source calls inconclusive (neither active nor inactive); the mix of calls is not that of the screen. The call rests on the fitted dose curve; in most records, active means well fitted cell-killing curve with a large enough effect; inconclusive means small, poorly fitted or top-dose-only effect, or effect the other way; inactive means flat fitted curve, though single readings scatter. Where the call is inconclusive, the potency comes from a doubtful curve fit.

assay: qHTS assay for MDR1-selective chemotherapeutics: Primary screen using the parental adenocarcinoma cell KB-3-1; settings: KB-3-1 viability, CellTiter-Glo ATP luminescence, 72 h; activity change, negative = cytotoxic: at 46.1 µM (top of the series); further: nearly all actives have a fitted effect of over 60% in size
Summary of the method: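 Here the drug-naive KB-3-1 line serves as comparator for MDR sub-line selectivity; cells received compound titrations, 72 h at 37 °C, then CellTiter-Glo readout.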
On the % scale 0 is the no-effect control and ±100 the full control effect; potency means the concentration at half of the fitted maximal effect.

| Compound | Potency | activity change, negative = cytotoxic |
| --- | --- | --- |
| C[C@@H]1CN([C@@H](C)CO)C(=O)CCCn2cc(nn2)CO[C@H]1CN(C)C(=O)Oc1ccccc1 | inconclusive: 14.6 µM [rising, single point] |  |
| COC(=O)C1=CN(c2cc(C)cc(C)c2)C=C(C(=O)OC)C1c1cccc(F)c1 | inactive |  |
| O=C1CCN2C=Nc3cccc4ccc1c2c34 | inconclusive: 18.4 µM [cytotoxic, single point] |  |
| COc1ccccc1C(C)NC(=O)CCNC(=O)c1ccc(Cl)cc1 (stereo not drawn) | inconclusive: 3.26 µM [rising, full curve] |  |
| CN1CC[C@H](c2c(O)cc(O)c3c(=O)cc(-c4ccccc4Cl)oc23)[C@H](O)C1 | inconclusive: 0.0046 µM [cytotoxic, full curve, poor fit] |  |
| COC(=O)NCC(C)OC(=O)Nc1ccc(Cl)cc1 (stereo not drawn) | inconclusive: 16.4 µM [rising, single point] |  |
| CN(C)CCNC(=O)Nc1ccc(F)cc1F | inconclusive: 4.11 µM [cytotoxic, full curve, poor fit] |  |
| CS(=O)(=O)Nc1ccccc1-c1cccc2nccn12 | inactive |  |
| COc1ccccc1N1CCN(C(CNC(=O)C(=O)NCc2ccc(C)cc2)c2cccnc2)CC1 (stereo not drawn) | inconclusive: 29.1 µM [cytotoxic, single point] |  |
| Cc1ccc2nc(-c3ccccc3)cc(C(=O)Nc3cccnc3)c2c1 | inactive |  |
| CCN(CC)C(=O)C1=C(C)N(Cc2ccc(F)cc2)C(=O)C(CC(=O)NC2CCCC2)C1 (stereo not drawn) | inconclusive: 3.26 µM [cytotoxic, partial curve, poor fit] |  |
| CC(C)CCC1(CCO)C(=O)N=C(N)NC1=O (stereo not drawn) | inconclusive: 23.1 µM [rising, single point] |  |
| CCOC(=O)c1ccc(NC(=O)c2oc(=O)c3ccccc3c2-c2ccccc2)cc1 | inactive |  |
| O=C1[C@H]2[C@@H](c3ccc(C(F)(F)F)cc3)N[C@]3(CCCN(Cc4ccc(C(F)(F)F)cc4)C3=O)[C@H]2C(=O)N1Cc1ccccc1 |  | inconclusive: -32.2% [cytotoxic] |
| Cc1cccc(Cn2c(=O)n(CC3CCC(C(=O)N4CCOCC4)CC3)c(=O)c3sccc32)c1 (stereo not drawn) | inactive |  |
| COc1cccc(NC(=O)C2CCC(CNS(=O)(=O)c3cccs3)CC2)c1 (stereo not drawn) | inconclusive: 0.206 µM [cytotoxic, full curve] |  |
| O=C(OCCOc1cccc(Cl)c1)c1cc(S(=O)(=O)N2CCCCC2)ccc1N1CCOCC1 | inconclusive: 0.731 µM [cytotoxic, full curve, poor fit] |  |
| Cc1cc(C(C#N)c2ccccc2F)n2ncnc2n1 (stereo not drawn) | inconclusive: 11.6 µM [rising, partial curve] |  |

Given in CSV form: 2 of the compounds above
Compound,Potency,"activity change, negative = cytotoxic"
COc1ccccc1N1CCN(C(CNC(=O)C(=O)NCc2ccc(C)cc2)c2cccnc2)CC1 (stereo not drawn),"inconclusive: 29.1 µM [cytotoxic, single point]",
CCOC(=O)c1ccc(NC(=O)c2oc(=O)c3ccccc3c2-c2ccccc2)cc1,inactive,
